{"source": "patent US9506032B2", "about": "“Engineered biological pacemakers” (The United States of America, as represented by the …, priority 2009, dated 2016)", "test_system": "spontaneously beating ESCs", "experiment": "Spontaneous action potentials and Ca2+ signals in intact spontaneously beating ESCs (patch clamp with confocal imaging)", "type": "cell-based, Mouse", "conditions": "200 nM, 6 cells", "excerpt": "Mouse ES cells of line R1 were differentiated into cardiac cells using the “hanging drop” technique. ESCs were isolated from in vitro-grown embryoid bodies by microdissection followed by collagenase treatment. […] At day 2, EBs were transferred into bacteriological petri dishes and cultured in suspension until day 5. […] Individual spontaneously beating ESCs were isolated by microdissection and collagenase treatment.\nESCs differentiated in vitro for 9 to 20 days after plating of 7 days old embryoid bodies were studied during continuous superfusion with solution containing in mmol/L: 140 NaCl, 5.4 KCl, 5 HEPES, 2 MgCl2, 1.8 CaCl2, 10 glucose, (pH adjusted to 7.4 with NaOH). Selection of the cells for patch-clamp technique was based on spontaneous beating. Action potentials were measured at physiological temperature (35±2° C.) with standard current-clamp technique (Axopatch 200, Axon Instruments, Foster City, Calif., USA), pCLAMP7 software was used for data acquisition and analysis (Axon Instruments). Perforated patch-clamp technique was performed with β-escin added to the electrode solution. […]\nFluo-4 measurements are presented in terms of F/F0 (normalized Ca^2+ signal). […] were analyzed by programs developed using Delfi-7 software. The duration and width of LCRs were measured as the time at half-maximal amplitude of the normalized signal."}
{"smiles": "COC(=O)C1=C(C)NC(C)=C(C(=O)OC)C1c1ccccc1[N+](=O)[O-]", "note": "[nifedipine]", "values": [{"measurement": "duration of temporal phase with substantial CL variability preceding suppression of beating", "result": "about 1 min"}]}
